Here are results for 107 sequences from PubChem BioAssay AID1508600 (Functional Genomics Laboratory (NCATS/FGL), 2020).

Among all 53,000 sequences or so, about 3,700 (7%) were called active.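 How the source made its calls: active means gene knockdowns whose robust z-score for IL-1 alpha signal is at least 2 or at most -2, so actives lie on both sides; inactive means the rest.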 The list shows a part of the results.

The nature of the test: Components of the Cytosolic LPS Sensing Pathway: Gene Identification via Genome-wide siRNA Screen.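 Further: robust z of the log signal after scaling to non-targeting control siRNA wells of the plate.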 To be noted: RAW264.7 macrophages, IL-1a HTRF, actives lie on both sides, screened at 100 nM (by protocol), cells primed 5 h with Pam3CSK4 first. In a few lines: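 Mouse macrophage line RAW264.7 is transfected with siRNA (100 nM final), grown 48h, primed with TLR ligand Pam3CSK4 5 h and given intracellular LipidA 24 h. IL-1a in supernatant is read by HTRF and viability by luminescence.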
In general terms: Time-resolved FRET reads energy transfer from a long-lived donor to a nearby acceptor.
For the sequence CCUUUUCAGCAGAAUAUCGTT against Ifnar1, the z-score is inactive: 0.427.

On to GGCCUACAUACUCCUGAAGTT against Ttc21a, for which the z-score was inactive: -1.28.

GGUAGCACUUACGUGAAAUTT against Mbd2: the z-score is inactive: -0.655.

In the case of GGGACACUUUCACUUGUUCTT against Rmnd5a, the z-score was inactive: 0.159.

Consider GGUCGAACUUCUGUGCCAUTT against Slc39a8, for which the z-score was active: 2.39.

Take GCAUGAUACCAAUAGAGAATT against Acot4: the z-score was inactive: -0.0439.

For “GGAGAUGGAGUGAAUUGGCTT against 4933404G15Rik”, the z-score is inactive: -0.993.

Take GCAACAAUCUAACCUCAGATT against Mela: the z-score is active: -2.3.

CCUCCAAUCCGUUGAAGAATT against Zfp935: the z-score is inactive: -0.6.

With CCAACAAUAAACGAGGUCCTT against Mnt, the z-score is inactive: 0.697.

Consider GCCUGUAUACAUAAGUAAATT against Syngr4, for which the z-score was inactive: -0.281.

With GAAGUACAAGGUAGAGUACTT against Mgst3, the z-score was inactive: -0.428.

Regarding GGAUUUCUCUGCCUGUACUTT against Gdpgp1, the z-score was inactive: 0.37.

Consider GGACUCCUUUAAGCCACUUTT against Prkag1, for which the z-score was inactive: -1.39.

Turning to GGCCUUUUCAUUGUUUGACTT against Myl4, the z-score was inactive: -1.47.

With GGAGUACCUGUGGUGCAUUTT against Ahcy, the z-score was inactive: 0.213.

As to GCUACAUAAUUCCGAAGUUTT against Fmr1, the z-score was active: 2.23.

GGAAGCUGGCAAGUUUAUGTT against Cfap161: the z-score is inactive: -0.159.

Consider CGACAAGAAAACAUACUAGTT against Gins4, for which the z-score was active: 2.28.

For the sequence “GGCCCAAGAUUUCAAUUAGTT against 9130230L23Rik”, the z-score is inactive: -0.0833.

On to GGACAAAGUAUUUGUGACCTT against Cd3d, for which the z-score is inactive: 0.00913.

Turning to CCUGGUAGCUUCUUCUCAATT against Krt4, the z-score is inactive: 1.03.

GGCCGGCUAAAGGCUUUUUTT against Olfr1019: the z-score is inactive: 0.858.

Turning to GGGCAGACAGUUUACAGAATT against Aco1, the z-score is inactive: -0.634.

As to GGUUUAAUUCUUGUCUUGUTT against Pvt1, the z-score is inactive: -0.928.

As to GGAAUGAAAGUUCCACUAUTT against Emcn, the z-score was inactive: -0.633.

As for GCAAAUCGGCCAAGAGAUGTT against Vti1a, the z-score was inactive: 0.199.

Consider “CAGCGGCCGCGCUUCACCGTT against 4930404N11Rik”, for which the z-score was inactive: 0.92.

As for GGGUCGAUUGUCAAUAUCATT against Pecr, the z-score is inactive: 0.478.

Turning to GCAGAUCGCAAAAGAUCCUTT against Nppa, the z-score is inactive: 0.69.

Consider GGACAAAGUUGUUCCUUCUTT against Zfp13, for which the z-score was active: -2.62.

Take GGCCCUACCCAUUCAUUCUTT against Asb6: the z-score is inactive: 0.212.

As to CGUUGCUGUUGUGGUCUUGTT against Olfr1232, the z-score is active: -2.71.

Regarding GGGAAGUUGUCCUUGAAGATT against Cd36, the z-score was inactive: -0.037.

Take GCCCGGAAUAUAUAGCCCUTT against Hdac10: the z-score is inactive: -0.706.

As for CCUUAUACCAUAGAGAACATT against Bfar, the z-score was inactive: 1.14.

On to GCAAGAUCAAACCUUAGUGTT against Pbsn, for which the z-score was inactive: 0.952.

Take GGAUGAUUUAUGGUUCUUGTT against Vmn1r76: the z-score is inactive: -0.382.

For GGUGGAACCUAUGUACUUUTT against Cygb, the z-score is inactive: -1.05.

On to GGAAUUCUCUAUACCAAGATT against P2ry10b, for which the z-score is inactive: 0.51.

In the case of GGAGGGCAUGGAGAACAUGTT against Pkn3, the z-score was inactive: -0.94.

Turning to CCAAAGCCAGCAAAUAAACTT against Scnn1g, the z-score is inactive: 0.565.

As to CGAGCUGUUAGAAUUCAGATT against Jakmip1, the z-score was inactive: -0.818.

With CCCAUUAACCACUCCUAAATT against Tafa2, the z-score is inactive: -1.13.

Take GGGACUUGCAUUUUAUAUUTT against Cfap61: the z-score was inactive: 0.33.

For GGUCCAGCUAUAAAGACAATT against Slc10a5, the z-score was inactive: 0.297.

On to GCCUAAGACCAACUGGCAATT against Theg, for which the z-score is inactive: 0.735.

As to “GCCUAUCACAUCUUAUCUGTT against 4930503B20Rik”, the z-score is inactive: -0.225.

Regarding GUAGUAACAGGAUCUUCUUTT against Vmn1r6, the z-score is inactive: -0.293.

As for GGGCUCAUCCUUAAAGAUUTT against Kdm5c, the z-score is inactive: -0.0812.

For the sequence GCCUUUCAACUCACCAGCCTT against Zfp574, the z-score was inactive: 0.617.

Take GGACCUAAAGAUUAUCUUATT against Rgs4: the z-score was inactive: 0.5.

Consider CCCUAGCUAUCAAGAUAUUTT against Hace1, for which the z-score is inactive: 0.724.

Consider GGUUCUGAAAGCAAACAAATT against Fgf18, for which the z-score was inactive: -0.91.

On to GGAUACAGCAGAUCUUAUUTT against Haus2, for which the z-score is inactive: 0.717.

For CGUGUAAGUUUUGAUUCUATT against Calr, the z-score was inactive: 0.815.

With GUCGCUCUUCUAAAACUUUTT against Mob1b, the z-score was inactive: 0.278.

As for CGACAUUUUACUAAGAGAUTT against Idnk, the z-score was inactive: -0.895.

With GGUGACAAAGGUGUUAGAATT against Itpkc, the z-score is inactive: -0.252.

On to GCCUACAGCUCUUUACACATT against Gpr89, for which the z-score is inactive: 0.593.

As for GCCAGGCAUCUACUUCAUUTT against Pepd, the z-score was inactive: -1.06.

Turning to GGGAUAAUAAUGUUGAUUGTT against Mrc1, the z-score was inactive: -0.152.

For the sequence GGCCUGAACUUUUUAUUGATT against Olfr533, the z-score is active: -2.19.

As to CCCAGUUUAGAUUGGUCAATT against Igfbp5, the z-score is inactive: 1.15.

In the case of GGACCUGAAUAAGACUAUUTT against Lgmn, the z-score was inactive: -0.429.

Consider GGAGUGGUAUACCAUGUCUTT against Nipal4, for which the z-score is inactive: -0.884.

For the sequence GGAAGUUGGAAAGAACCUATT against Bcl2a1c, the z-score is inactive: 0.881.

Consider GCACACGUCCUAUAAAAAUTT against Rad54b, for which the z-score was inactive: 0.532.

Take GGAAGCAAUGAUCAAUUAUTT against Ppp2r3c: the z-score was inactive: 0.752.

For the sequence GGAUAGGAAAAAAUCACCATT against Prpf4b, the z-score is inactive: -1.14.

As to GGAAUGGUAAUGCUAUUGGTT against Tmem39a, the z-score is inactive: 0.169.

On to GGAAGAAACAGGGAUUGAUTT against Mical2, for which the z-score was inactive: -0.281.

Turning to GGAGUUGCUUGAUUUUAAATT against Pdk1, the z-score was inactive: 0.459.

With GGACAGAUACGUUAUCAAGTT against Il3, the z-score is inactive: 1.31.

For GGUGUUCGGUGUCCUGGAATT against Pctp, the z-score is inactive: -0.2.

On to CGUGGUGAGAUCAUAAAACTT against Bbox1, for which the z-score is inactive: 0.0594.

For GCAGCAAGACCUACGAAGATT against Sel1l, the z-score was inactive: 0.566.

For the sequence GCUCAUUGAGAUAUCACAATT against Cabp2, the z-score is inactive: -0.4.

For the sequence GGAAACUGUUUUAGAUAAGTT against Tdrd6, the z-score was inactive: -0.251.

On to GGCUUUACUACUCAACCAUTT against Gjb3, for which the z-score was inactive: -0.388.

GGGAAAGGCAUUUAUUUUCTT against Mptx1: the z-score is inactive: 1.16.

As to GUCUUGACCUUUGUAACUGTT against Olfr197, the z-score was inactive: 0.418.

On to GGAGCUGUCCCAAGAAAUCTT against Ints5, for which the z-score is inactive: 0.434.

For the sequence GGUUCUGCUGGACAACUUUTT against Cyp46a1, the z-score was inactive: -0.377.

Turning to GGCAAGUCCAUGGUCAUGUTT against Smg9, the z-score is inactive: -1.19.

On to “GGUUCAGACGACAAGCAGATT against 9530068E07Rik”, for which the z-score was inactive: 0.28.

Consider GGAAGUAACAGAGAAGGAATT against Mtmr12, for which the z-score was inactive: 0.00409.

Consider CCCUACAAAGUAUAUCGAATT against Irf9, for which the z-score was inactive: 0.283.

Take “GGAGGGAAUAGAGAAUCGGTT against A930024E05Rik”: the z-score is active: 3.7.

As for CCUGAACAGAUUGAAGAGUTT against Myl3, the z-score is inactive: -0.0652.

As to GGAUGCUUGUGCAAAGAUGTT against Anks1b, the z-score is inactive: 0.862.

Consider GCAUAACUUAAACUGCUCATT against Zfp12, for which the z-score was inactive: 1.91.

Regarding GGCUAUUCAGGACUACAGCTT against St3gal2, the z-score is inactive: -0.982.

In the case of CCAGGAUCAUUCUUCUGAATT against Chrna7, the z-score was inactive: -0.563.

With GCCUUUGAGAGCAGCCAGATT against Ypel3, the z-score is inactive: 0.621.

Regarding CCUUAAAACAGAUCCACUUTT against Nell2, the z-score is inactive: 0.473.

Turning to CGAUCUAGUCCGCCAUUACTT against Lck, the z-score was inactive: -1.3.

As to GGGUAUACCCAACUUUUACTT against Hhex, the z-score was inactive: -0.652.

As for GGCGAGUUUUCCUCUUCAGTT against Sync, the z-score is inactive: 1.08.

In the case of CGUCUGUCAGAAACUACACTT against Atrnl1, the z-score is inactive: 0.864.

CCAACCAAUAGUUCUAUACTT against Ppp3r2: the z-score is inactive: 0.0338.

With GGUCCAACCUUAUUGAAUGTT against Tlr6, the z-score is inactive: -0.345.

For GGAGAAAAAAAACUCCAUUTT against Micu2, the z-score was inactive: 0.536.

As to GGAAGGAGCUUCGAAAAAATT against Pex16, the z-score is inactive: 0.129.

Turning to CGAAACUCCCAUUGUUAAUTT against Zfp521, the z-score is inactive: 1.29.

As to GGCUGAAAUUGACAAGUUGTT against Ing4, the z-score is inactive: 1.02.

Take GCAAAUGGAUGCGCUAAGCTT against Clec11a: the z-score was inactive: 0.912.
